Measurements as given in PMC9445082.
No constants are given. Whether binding was seen depends on the method and setting. In cells and extracts the contact can be indirect. For some assays here: A result given as binding can be weak or reduced; the word gives no strength. For some assays here: Where a sequence is shown, tags or fusion partners need not be part of it.

By UniProt entry, the sequences of proteins in these tests, tags left out.
UniProt Q6RET7: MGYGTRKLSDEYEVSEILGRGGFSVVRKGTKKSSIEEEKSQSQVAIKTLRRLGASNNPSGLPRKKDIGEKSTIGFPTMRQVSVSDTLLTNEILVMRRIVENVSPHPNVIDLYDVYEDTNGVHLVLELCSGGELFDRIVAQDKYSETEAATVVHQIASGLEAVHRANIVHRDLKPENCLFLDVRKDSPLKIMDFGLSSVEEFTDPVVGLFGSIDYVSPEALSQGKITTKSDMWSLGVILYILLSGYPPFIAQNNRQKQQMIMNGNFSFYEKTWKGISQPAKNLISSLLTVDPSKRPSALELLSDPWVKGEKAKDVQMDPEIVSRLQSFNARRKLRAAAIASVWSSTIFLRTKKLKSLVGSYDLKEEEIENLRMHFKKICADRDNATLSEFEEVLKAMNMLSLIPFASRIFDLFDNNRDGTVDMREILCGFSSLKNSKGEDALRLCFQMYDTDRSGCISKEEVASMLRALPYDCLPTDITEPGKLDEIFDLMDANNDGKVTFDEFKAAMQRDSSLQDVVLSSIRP

T1: VPY-GFP (Medicago truncatula) (UniProt D3J162)
T1 sequence: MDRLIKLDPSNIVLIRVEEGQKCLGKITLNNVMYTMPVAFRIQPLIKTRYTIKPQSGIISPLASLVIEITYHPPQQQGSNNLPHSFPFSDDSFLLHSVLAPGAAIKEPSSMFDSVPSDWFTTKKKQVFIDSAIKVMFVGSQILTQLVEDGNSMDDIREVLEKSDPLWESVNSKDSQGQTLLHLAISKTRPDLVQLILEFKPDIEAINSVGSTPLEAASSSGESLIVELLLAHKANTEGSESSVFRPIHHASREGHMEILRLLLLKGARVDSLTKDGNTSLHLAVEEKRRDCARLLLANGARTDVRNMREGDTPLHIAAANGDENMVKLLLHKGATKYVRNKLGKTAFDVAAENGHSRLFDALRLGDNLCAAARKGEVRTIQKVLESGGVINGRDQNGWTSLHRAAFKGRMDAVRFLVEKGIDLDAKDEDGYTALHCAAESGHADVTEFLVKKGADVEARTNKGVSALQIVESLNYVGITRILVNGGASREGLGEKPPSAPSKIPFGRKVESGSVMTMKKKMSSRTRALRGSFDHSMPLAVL


Assays:
Experiment in all cases: co-IP; tagged proteins co-expressed in N. benthamiana leaves (agroinfiltration, 2 days); extract in 150 mM Tris-HCl pH 7.5, 150 mM NaCl, 10% glycerol, 10 mM EDTA, 0.1% Tween-20; GFP-tagged protein captured on GFP-Trap MA beads, 2 h at 4 °C; four washes; partner detected by western blot
[1] = target: GFP-DMI3 (Medicago truncatula) (UniProt Q6RET7)
[2] = target: T1, VPY-GFP (Medicago truncatula)
[3] = target: GFP-ΔDELLA1 (Medicago truncatula)

Row | binding [1] | binding [2] | Molecule | other results
1 | no binding | – | VPY_(ANKΔ7-9)-HA (from UniProt D3J162) | –
2 | – | binds | KINASE2-HA (Medicago truncatula) (enzyme) | –
3 | binds | – | VPY_(ANKΔ3-5)-HA (from UniProt D3J162) | –
4 | – | binds | FLAG-tagged KINASE2 (Medicago truncatula) (enzyme) | –
5 | – | – | VPY-HA (protein, UniProt D3J162 1-541) MDRLIKLDPSNIVLIRVEEGQKCLGKITLNNVMYTMPVAFRIQPLIKTRYTIKPQSGIISPLASLVIEITYHPPQQQGSNNLPHSFPFSDDSFLLHSVLAPGAAIKEPSSMFDSVPSDWFTTKKKQVFIDSAIKVMFVGSQILTQLVEDGNSMDDIREVLEKSDPLWESVNSKDSQGQTLLHLAISKTRPDLVQLILEFKPDIEAINSVGSTPLEAASSSGESLIVELLLAHKANTEGSESSVFRPIHHASREGHMEILRLLLLKGARVDSLTKDGNTSLHLAVEEKRRDCARLLLANGARTDVRNMREGDTPLHIAAANGDENMVKLLLHKGATKYVRNKLGKTAFDVAAENGHSRLFDALRLGDNLCAAARKGEVRTIQKVLESGGVINGRDQNGWTSLHRAAFKGRMDAVRFLVEKGIDLDAKDEDGYTALHCAAESGHADVTEFLVKKGADVEARTNKGVSALQIVESLNYVGITRILVNGGASREGLGEKPPSAPSKIPFGRKVESGSVMTMKKKMSSRTRALRGSFDHSMPLAVL | binding [3]: no binding
